Results taken from patent US8343580B2, “Organometallic compounds” (Rohm and Haas Electronic Materials LLC, priority 2009, dated 2013).

How the values were obtained:
[1] = ALD growth of ruthenium films with ammonia as second precursor; conditions: wafer at 300° C.
Description: Ruthenium films are grown using the N,N′-di-tert-butylacetamidinato-N,N′-di-tert-butylacetamidinatocarbamoyl dicarbonyl ruthenium(II) (“Ru(AMD)-Cbm”) from Example 1. Ru(AMD)-Cbm (1 g) is placed into a source boat from an ASM F-120 ALD reactor under N2. The source temperature is set at 140° C. Ammonia is used as the second precursor to affect the atomic layer deposition of ruthenium films. The primary and secondary purging gases are N2, and their flow rates are set at 400 and 300 sccm, respectively. A 10 cm (4 inch) diameter wafer of p-type silicon (Cz, single side polished) is placed in the ALD chamber and heated at 300° C. The pulse sequence is adjusted as follows: precursor/N2 purge at 1 s/3 s, while the ammonia flow from a high purity ammonia source is kept on at 40 sccm during the deposition. 1000 Cycles are applied for the Ru thin film deposition.
A smooth, highly uniform Ru film is expected to be grown on the wafer after 1000 cycles. The film thickness is expected to be more than 125 nm, thereby affording the un-optimized thin film growth rate of about 1.25 Å/cycle.

[2] = Resistivity of Ru films grown by DLI deposition, 4-point probe method; conditions: deposition temperature 350° C., procedure of Example 12
Description: Ruthenium films were grown using a solution of ruthenium carbamoyl precursor from Example 1 in a solvent using a DLI system. The solvent was purified by distillation from calcium hydride under inert nitrogen gas atmosphere. The freshly distilled solvent was used for preparing the diluted solution of ruthenium carbamoyl precursor, N,N′-di-tert-butylacetamidinato-N,N′-di-tert-butylacetamidinatocarbamoyl dicarbonyl Ruthenium(II). Suitable solvents were chosen from THF, toluene, a mixture of cyclohexylbenzene and bicyclohexyl (9:1, v/v), 1,2,3,4-tetrahydronaphthalene, or diethylbenzene. In one experiment, the concentration of the ruthenium carbamoyl precursor was 0.08 M in a mixture of cyclohexylbenzene and bicyclohexyl (9:1, v/v). The solution was filtered in order to ensure particle-free environment. The solution was then transported from its container to a vaporizer unit of the DLI system. The vaporization temperature was set at 100° C. to 160° C. Ammonia was used as a second reactant to deposit metallic ruthenium films. In some deposition runs, O2 at low concentrations in N2 (0-30% v/v, preferably 1-10%) was used as the second reagent. The reactor was enabled for depositions in either of ALD, CVD, Pulse CVD, or AVD modes. The carrier and purging gases used were N2 or argon or helium, and their flow rates ranged from 50 to 500 sccm, respectively. […]

**Q.** For `CC1=[N+](C(C)(C)C)[Ru-4]2([C]#[O+])([C]#[O+])([C](=O)N1C(C)(C)C)[N](C(C)(C)C)C(C)=[N+]2C(C)(C)C` [Ru-Cbm, N,N′-di-tert-butylacetamidinato-N,N′-di-tert-butylacetamidinatocarbamoyl dicarbonyl Ruthenium(II)], which “Un-optimized thin film growth rate” value ([1]; 1000 cycles) is on record?
**A.** about 1.25 Å/cycle

**Q.** And the Film thickness ([1]; after 1000 cycles, source 140° C.)?
**A.** more than 125 nm

**Q.** What about the Ru film resistivity [2] of the same compound?
**A.** 200 μohm·cm

**Q.** For `CC(=NC(C)(C)C)[N]([Ru][N](C(C)=NC(C)(C)C)C(C)(C)C)C(C)(C)C.[C-]#[O+].[C-]#[O+]` [Ru-AMD, bis(N,N′-di-tert-butylacetamidinato) dicarbonyl Ruthenium(II), reference compound], which Ru film resistivity [2] is on record?
**A.** > 500 μohm·cm
